Measured values taken from PubChem BioAssay AID624297 (National Center for Advancing Translational Sciences (NCATS), 2012).
About 6,200 (1.8%) of roughly 340,000 compounds were called active. The shares of active, inactive and inconclusive entries below differ from those in the screen. The call rests on the fitted dose curve; in most records, active means well fitted activation curve with a large enough effect; inconclusive means small, poorly fitted or top-dose-only effect; inactive means no such curve, though single readings can be large or run the other way. A potency beside an inconclusive call is a rough fit, not a confirmed value.

Assay: A quantitative high throughput screen for small molecules that induce DNA re-replication in SW480 colon adenocarcinoma cells. Further: nearly all actives have a fitted effect of over 55% in size. On re-replication activation: % of control where 0% means no effect.
Details: Hoechst DNA content imaging, 48 h; re-replication activation: at 46.1 µM (top of the series) unless noted
Procedure, shortened: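 Image-based DNA-content assay: after two days of treatment, nuclei were labelled with the DNA dye Hoechst and imaged, and hits were compounds raising the count of nuclei showing high fluorescence intensity.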
Potency means the concentration at half of the fitted maximal effect.

SMILES	Potency	re-replication activation
O=C(NCCC1=CCCCC1)c1cc(COc2ccc(F)cc2Cl)on1	inconclusive: 6.51 µM [activator, partial curve, poor fit]	
Cc1ccc(CSCc2ccc(C(=O)NCCC(C)C)o2)cc1	inactive	
O=C(Nc1ccc(F)cc1F)c1ccc2ncsc2c1	inactive	
COc1cc(NCCCCCCN)c2ncccc2c1OC	inconclusive: 18.4 µM [activator, single point]	
CS(=O)(=O)Nc1cccc(C2=NN(S(C)(=O)=O)C(c3ccc4c(c3)OCO4)C2)c1 (stereo unspecified)	inconclusive: 20.6 µM [activator, single point]	
COc1ccccc1Nc1ccc2c(O)cc(S(=O)(=O)O)cc2c1	inactive	
Cc1cc(C)nc(NC(=O)c2c(-c3ccccc3Cl)noc2C)c1	inconclusive: 3.26 µM [activator, partial curve, poor fit]	
NC(=O)COc1ccc(NC(=O)CC23CC4CC(CC(C4)C2)C3)cc1	inconclusive: 16.4 µM [activator, single point]	
CC(C)Oc1ccc(C(=O)N2CCCc3ccccc32)cc1	inactive	
Cc1c(C(=O)OCC(=O)N(C)Cc2ccc(Cl)cc2)oc2ccccc12	inconclusive: 6.51 µM [activator, partial curve, poor fit]	
CCOC(=O)/C(=C/c1c(C)n(C)c2ccc([N+](=O)[O-])cc12)C(C)=O	inconclusive: 29.1 µM [activator, single point]	
CCN(CC(=O)NCc1cccs1)S(=O)(=O)c1ccc([N+](=O)[O-])cc1	inconclusive: 2.91 µM [activator, single point]	
COc1ccc2oc(C(=O)N(C)CCOc3ccc(Cl)cc3)c(C)c2c1	inactive	
Cc1ccc2nc(SCC(=O)c3ccc4c(c3)OCO4)[nH]c2c1	inactive	
CCN(CC)c1ccc(S(=O)(=O)N2CCOCC2)cc1NC(=O)CSC(=S)N1CCCC1	inconclusive: 23.1 µM [activator, single point]	
CCN(CC)CCNC1=NCCn2c1cc1cc(OC)ccc12	inconclusive: 29.1 µM [activator, single point]	
COc1ccc2c(CC(=O)NCCN3C(=O)S/C(=C\c4cccnc4)C3=O)coc2c1	inactive	
CN(C)c1ccc(N=c2sc3ccccc3n2C)cc1	inconclusive: 29.1 µM [activator, single point]	
Cc1cc(-c2nn(-c3ccccc3F)cc2CN2CCC(O)CC2)c(C)s1	inactive	
CC(C)CCNc1nc(N2CCCC2)c2c(c1C#N)CCN(C)C2	inconclusive: 20.6 µM [activator, single point]	
Cc1onc(-c2ccccc2)c1C(=O)Nc1sc2c(c1C#N)CCC2	inconclusive: 25.9 µM [activator, single point]	
Cc1ccc(S(=O)(=O)NNC(=O)NC23CC4CC(CC(C4)C2)C3)cc1	inactive	
CCC(=O)Nc1nnc(S(=O)(=O)N(C)c2cc(C)cc(C)c2)s1	inactive	

SMILES	Potency	re-replication activation
Cc1ccc(C(=O)COC(=O)C2C3C=CC(C3)C2C(=O)OCC(=O)c2ccc(C)c(C)c2)cc1C (stereo unspecified)	inactive	
Cc1ccc(-c2nnc(OCc3nc4ccccc4n3C)c3ccccc23)cc1	inactive	
O=C(CCNS(=O)(=O)c1cccc2nsnc12)NCc1ccc(F)cc1	inconclusive: 3.26 µM [activator, single point]	
CN(CC(=O)NCc1ccccc1F)S(=O)(=O)c1ccc(Cl)cc1	inconclusive: 1.46 µM [activator, partial curve, poor fit]	
Cc1ccc(Sc2cc(C)nc(-c3ccccn3)n2)cc1	inactive	
COc1ccc(-c2cc(C(=O)NCCN3CCOCC3)c3ccccc3n2)c(OC)c1	inconclusive: 0.206 µM [activator, full curve, poor fit]	
CC(O)CNc1ccc(-c2nn(C)c(=O)c3ccccc23)cc1[N+](=O)[O-] (stereo unspecified)	inactive	
Cc1ccc(S(=O)(=O)N2CCN(C(=O)c3sccc3C)CC2)cc1	inactive	
CCCOc1cccc(C(=O)NC(=S)Nc2cccc(C(F)(F)F)c2)c1	inconclusive: 18.4 µM [activator, single point]	
COc1ccc(N=C2C=CC(=O)O2)cc1	inconclusive: 18.4 µM [activator, single point]	
COc1ccc(/C=C2\C(=O)NC(=O)c3ccccc32)cc1OC	inconclusive: 29.1 µM [activator, single point]	
Cc1ccc(C(=O)NS(=O)(=O)c2ccc(N=NN(C)C)cc2)cc1	inactive	
CC(=O)N(C1=C(N)C(=O)c2ccccc2C1=O)c1ccccc1		inconclusive: 58.6% [activator]
Cc1ccc(NC(=O)CC(=O)c2ccccc2)cc1C	inconclusive: 20.6 µM [activator, single point]	
CCS(=O)(=O)N1CCN=C1SC(C)c1ccccc1 (stereo unspecified)	inactive	
CCC(=O)N1CCN(c2ccc(Cl)cc2NC(=S)NC(=O)c2ccco2)CC1	inactive	
CCOC(=O)/C=C/C(=O)Nc1ccccc1C(=O)NC1CCCCC1	inconclusive: 29.1 µM [activator, single point]	
CCCN(CC(=O)Nc1ccc(OC)c(OC)c1)CC(=O)Nc1ccc(F)c(F)c1F	inconclusive: 4.61 µM [activator, partial curve, poor fit]	
COc1cccc2cc(C(=O)Nc3cc(C)cc(C)c3)/c(=N/NS(=O)(=O)c3ccccc3)oc12	inconclusive: 1.84 µM [activator, partial curve, poor fit]	
Cc1ccnc2nc(C(=O)OCC(=O)Nc3ccc([N+](=O)[O-])cc3Br)nn12	inactive	
O=C(CCC1CCCCC1)Nc1nccs1	inconclusive: 0.731 µM [activator, full curve, poor fit]	
Cc1ccc2[nH]c(=O)c(CN(CCc3ccccc3)C(c3nnnn3Cc3ccco3)C(C)C)cc2c1 (stereo unspecified)	inconclusive: 18.4 µM [activator, single point]	
COc1ccc(N(C(=O)c2snc(C(N)=O)c2N)C(C(=O)NCC2CCCO2)c2ccc3ncccc3c2)cc1OC (stereo unspecified)	inconclusive: 0.0259 µM [activator, full curve, poor fit]	

Fetched by structure from the entries so far (four):
SMILES	Potency	re-replication activation
Cc1ccc(C(=O)NS(=O)(=O)c2ccc(N=NN(C)C)cc2)cc1	inactive	
Cc1cc(C)nc(NC(=O)c2c(-c3ccccc3Cl)noc2C)c1	inconclusive: 3.26 µM [activator, partial curve, poor fit]	
Cc1ccc2nc(SCC(=O)c3ccc4c(c3)OCO4)[nH]c2c1	inactive	
CCCOc1cccc(C(=O)NC(=S)Nc2cccc(C(F)(F)F)c2)c1	inconclusive: 18.4 µM [activator, single point]	
